The source of these data is patent US8828941 (KUNOVUS, dated 2014).

This experiment deals with full-length GDF-6 fused to a FLAG tag, expressed in CHO cells (human) (UniProt Q6KF10). Description: non-reducing PAGE of protein from CHO cells.

These are yes or no findings as the source states them, for the method shown. Some binding calls cover weakened binding; strength is not graded here. Tags and fused reporters may be left off the sequences shown.

B1: full-length GDF-6 fused to a FLAG tag, expressed in CHO cells (ligand, human, UniProt Q6KF10 336-455, looked up, not shown: small tags and cut ends)
chain: TAFASRHGKRHGKKSRLRCSKKPLHVNFKELGWDDWIIAPLEYEAYHCEGVCDFPLRSHLEPTNHAIIQTLMNSMDPGSTPPSCCVPTKLTPISILYIDAGNNVVYKQYEDMVVESCGCR
Turning to B1, the binding entry is given as “binds”.
